Some of these results come from one statement about several compounds together.
Assay: In vivo toxicity study in mice, 24-day treatment
Conditions: 20-25 mg/kg/day for 24 consecutive days

SMILES: CNC(=O)c1cc(Oc2ccc(NC(=O)Nc3ccc(Cl)c(C(F)(F)F)c3)cc2)ccn1 [Sorafenib, reference compound]
- death rate: 60-66%

Source: patent US8937088B2, “Ureas for the treatment and prevention of cancer” (Astar Biotech LLC, priority 2011, dated 2015)
